Reference: patent publication US8076485B2, “Methylphenidate derivatives and uses of them” (priority 2005, dated 2011)
At least one compound was matched to its structure with a doubt left.

Assays:
[1] = cited from earlier work
IL-8 [2] = assay: IL-8 release by TNFα-stimulated HUVECs (ELISA); format: cell-based, human; conditions: 10 ng/ml TNFα, Cpd II 1-30 μg/ml, MP 15 μg/ml, Dex 10 μM, LY 294002 10 μM
Description: Passage 4 HUVECs, human source lot number 8710 (obtained from ATCC), were put into the wells of a 24-well tissue culture plate at 5,000 cells/well in EGM-2 medium and cultured for 72 hours at 37° C. and 5% CO2. […] After incubation for 1 hour at 37° C. and 5% CO2, TNFα (Pierce) was added to give a final concentration of 10 ng/ml, and the cells were incubated for an additional 18 hours at 37° C. and 5% CO2. After this incubation, the supernatants were collected, and the amount of IL-8 in the supernatants determined by ELISA as described in Example 4.

[3] = test system: peripheral blood lymphocytes (PBL); assay: PBL proliferation assay (Promega cell titer, OD 530 nm); format: cell-based, human; conditions: for proliferation of PBL, both unstimulated and stimulated with PHA (OD at 530 nm): Dex 10 μM
Description: Whole blood was drawn from GR283, a human volunteer with known allergies, into a glass vacutainer tube containing no anticoagulant. This blood was allowed to clot, and the serum was removed by centrifugation and then heat inactivated by placing it in a water bath at 56° C. for 30 minutes. Whole blood from GR283 was also drawn into a glass vacutainer tube containing heparin and used for peripheral blood lymphocytes (PBL) isolation as follows. Whole blood was layered over room temperature Histopaque 1077 solution and centrifuged at 2000 rpm for 15 minutes at room temperature. Cells at the plasma-Histopaque interface were then removed and washed with culture medium (IMDM medium with 10% heat-inactivated GR283 serum plus 1% penicillin/streptomycin) at 37° C.
Then, GR283's PBL in culture medium were added to the wells to give a final concentration of 150,000 cells per well, and the plates were incubated at 37° C., 5% CO2 for 24 hours. After this incubation, phytohemagglutinin (PHA) in culture medium was added to give final concentrations of 2 μg/ml, 5 μg/ml or 20 μg/ml, final total volume of 200 μl/well, and the cells were incubated for an additional 72 hours at 37° C., 5% CO2. All cultures were performed in triplicate.
Cell proliferation was assayed by adding 20 μl of Promega cell titer solution to each well and incubating the plate for an additional 4 hours. Promega cell titer solution is a solution containing a tetrazolium dye that is reduced by living cells to a formazan dye, and this reduction is proportional to the number of living cells present in the well. After the 4-hour incubation, the optical density (OD) at 530 nm of each well was measured. The OD at 530 nm for blank wells containing no cells was subtracted from the OD of the experimental wells.
Then, GR467's PBL in culture medium were added to the wells to give a final concentration of 150,000 cells per well, and the plates were incubated at 37° C., 5% CO2 for 24 hours. […]

IL-13 = IL-13 release by PBL (ELISA); format: cell-based, human
Description: (§1) After this incubation, PHA was added to give a final concentration of 2 μg/ml, and the cells were incubated for an additional 96 hours at 37° C., 5% CO2. All cultures were performed in triplicate. Cells were then removed by centrifugation at 1000 rpm for 10 minutes, and the culture medium collected.
Release of IL-13 and interferon gamma (IFNγ) into the culture medium was measured by ELISA. To perform the ELISA, matched pairs of antibodies against human IL-13 and IFNγ were purchased from Pierce Biotechnology and Biosource, respectively. ELISA strip well plates were coated with 10 μg/ml of antibody (in phosphate-buffered saline (PBS)) to IL-13 and 4 μg/ml of antibody to IFNγ (in PBS) overnight at room temperature. The plates were then blocked using a 4% BSA solution in PBS for one hour, followed by the addition of 50 μl of experimental culture medium per well in duplicate. The plates were incubated at room temperature for one hour and then washed using 50 mM Tris pH 8.0 with 0.1% Tween 20. Then, solutions of 400 ng/ml biotinylated second antibody to IL-13 and 500 ng/ml biotinylated second antibody to IFNγ were made in blocking buffer, and 100 μl were added per well. […] OD was determined using microplate reader with a 450 nm filter. […]
The supernatants were collected, and the concentrations of IL-13 and tumor necrosis factor alpha (TNFα) in the supernatants were measured by ELISA. […]

IFNγ = IFNγ release by PBL (ELISA); format: cell-based, human; conditions: Example 2, GR467 PBL, 15 μg/ml Cpd II, 15 μg/ml MP, 10 μM Dex, FIG. 4
Description: as §1
Release of IL-13 and interferon gamma (IFNγ) into the culture medium was measured by ELISA. To perform the ELISA, matched pairs of antibodies against human IL-13 and IFNγ were purchased from Pierce Biotechnology and Biosource, respectively. ELISA strip well plates were coated with 10 μg/ml of antibody (in phosphate-buffered saline (PBS)) to IL-13 and 4 μg/ml of antibody to IFNγ (in PBS) overnight at room temperature. The plates were then blocked using a 4% BSA solution in PBS for one hour, followed by the addition of 50 μl of experimental culture medium per well in duplicate. The plates were incubated at room temperature for one hour and then washed using 50 mM Tris pH 8.0 with 0.1% Tween 20. Then, solutions of 400 ng/ml biotinylated second antibody to IL-13 and 500 ng/ml biotinylated second antibody to IFNγ were made in blocking buffer, and 100 μl were added per well. The plates were incubated for 1 hour and washed again. […] OD was determined using microplate reader with a 450 nm filter.

TNFα = TNFα release by PHA-stimulated PBL (ELISA); format: cell-based, human; conditions: Example 3, GR191 PBL, Cpd II 15 and 50 μg/ml, Dex 10 μM, 72 hours, FIG. 7
Description: After this incubation, PHA was added to give a final concentration of 5 μg/ml, and the cells were incubated for an additional 72 hours at 37° C., 5% CO2. All cultures were performed in triplicate. Cells were then removed by centrifugation at 1000 rpm for 10 minutes.
The TNFα ELISA was performed as described in Example 2 using matched pair antibodies from Pierce Endogen (2 μg/ml for the coating antibody and 250 ng/ml for the second antibody).

T-cells = assay: CD69+TCR staining (flow cytometry, T-cell activation); format: cell-based, human; conditions: PHA 5 μg/ml plus dexamethasone 10 μM
IL-8 [4] = assay: IL-8 release by PHA-stimulated PBL (ELISA); format: cell-based, human; conditions: Example 4, GR-192 PBL; 15 μg/ml Cpd II, 10 μM Dex; PHA 2 μg/ml, 96 hours; FIG. 8
Description: as §1, with “Whole blood was drawn from GR-192, a normal human volunteer, and processed as described in Example 1 to give heat-inactivated serum and PBL. […] After” for “After”
To perform the ELISA, matched pairs of antibodies against human IL-8 were purchased from Pierce Biotechnology and Biosource, respectively. ELISA strip well plates were coated with 2 μg/ml of antibody to IL-8 (in phosphate-buffered saline (PBS)) overnight at room temperature. The plates were then blocked using a 4% BSA solution in PBS for one hour, followed by the addition of 50 μl of experimental culture medium per well in duplicate. The plates were incubated at room temperature for one hour and then washed using 50 mM Tris pH 8.0 with 0.1% Tween 20. Then, solutions of 100 ng/ml biotinylated second antibody to IL-8 were made in blocking buffer, and 100 μl were added per well. The plates were incubated for 1 hour and washed again. […] OD was determined using microplate reader with a 450 nm filter.

COC(=O)C(c1ccccc1)C1CCCCN1 (racemic) [erythro racemate]
therapeutic effect [1]: very little therapeutic effect | toxic effects [1]: toxic hypertensive effects

O=c1cc(N2CCOCC2)oc2c(-c3ccccc3)cccc12 [LY 294002, reference compound]
IL-8 release stimulated by TNFα (IL-8 [2]): significantly decreased IL-8 release

C[C@@H]1C[C@H]2[C@@H]3CCC4=CC(=O)C=C[C@]4(C)[C@@]3(F)[C@@H](O)C[C@]2(C)[C@@]1(O)C(=O)CO [dexamethasone]
proliferation of PBL stimulated with PHA (OD at 530 nm) ([3]; Example 1, donor GR283, Cpd II and MP 5, 15, 50 μg/ml, Dex 10 μg/ml, PHA 2, 5, 20 μg/ml, FIGS. 1A-C): significantly inhibited the proliferation of PBL stimulated with PHA in a dose-dependent manner | proliferation of PBL, both unstimulated and stimulated with PHA (OD at 530 nm) ([3]; Example 2, donor GR467, Cpd II 5, 15, 25 μg/ml, MP 15 μg/ml, PHA 2 μg/ml, FIG. 2): significantly inhibited the proliferation of PBL | proliferation of PBL, both unstimulated and stimulated with PHA (OD at 530 nm) ([3]; Example 3, donor GR191, Cpd II 5, 15, 25, 50 μg/ml, MP 50 μg/ml, PHA 2 and 5 μg/ml, FIGS. 5A-B): significantly inhibited the proliferation of PBL | IL-13 release induced by PHA (IL-13; Example 2, GR467 PBL, 15 μg/ml Cpd II, 15 μg/ml MP, 10 μM Dex, PHA 2 μg/ml, 96 hours, FIG. 3): significantly inhibited IL-13 release | release of IL-13 from PHA-stimulated PBL (IL-13; Example 3, GR191 PBL, Cpd II 15 and 50 μg/ml, Dex 10 μM, PHA 5 μg/ml, 72 hours, FIG. 6): significantly inhibited the release of IL-13 | IFNγ release, unstimulated cells (IFNγ): significantly inhibited IFNγ release | IFNγ release, cells stimulated with PHA (IFNγ; PHA 2 μg/ml, 96 hours): significantly inhibited IFNγ release | release of TNFα from PHA-stimulated PBL (TNFα): significantly inhibited the release of TNFα | reducing the CD69+TCR staining of PHA-stimulated cells, compared with compound of formula II (T-cells): less effective than the compound of formula II | IL-8 release induced by PHA (IL-8 [4]): significantly inhibited IL-8 release
